At least one compound was matched to its structure with a doubt left.
Tested on: mice rhinitis model
Assay: Mice rhinitis model experiment (OVA-sensitized BALB/c mice)
Type: in vivo
Details: Example 8 compound 1 μg/Kg, budesonide 1.28 mg/Kg
Method: Mice Rhinitis Model Experiment
Female BALB/c mice (6-8 weeks) were sensitized with chicken ovalbumin (OVA, Sigma-Aldrich, St Louis, Mo., USA). The compound of the present invention (for example, the compound of Example 8) was administered to nasal mucosa, at a dose 1 μg/Kg. Glucocorticoid hormonal drug budesonide, a first-line clinical drug, was used as positive control, at a dose 1.28 mg/Kg. Meanwhile, there were provided a normal group wherein the mice were not sensitized and not administered, and an OVA group wherein the mice were sensitized and not administered. The following five indicators were detected: the number of sneezing, the number of nasal scratching within 10 min after administration; IL-4 level in bronchoalveolar lavage fluid; serum IgE level; lung tissue inflammation score. Lung tissue inflammation score was rated according to a single blind method: inflammation was divided into four levels from mild to severe, marked as 0-3 scores: 0 representing no detected inflammation; 1 representing occasional inflammatory cells being visible; 2 representing bronchus or blood vessel being surrounded by eosinophils, but less than five cell layers; 3 representing bronchus or blood vessel being surrounded by a large number of eosinophils, with 5 or more cell layers.

Compound: CCCC1O[C@@H]2C[C@H]3[C@@H]4CCC5=CC(=O)C=C[C@]5(C)[C@H]4[C@@H](O)C[C@]3(C)[C@]2(C(=O)CO)O1 (stereo partly shown) [Budesonide, budesonide, reference compound]
- serum IgE level (result in words) (versus OVA-sensitized and normal control groups): higher than that of the normal control group
- IL-4 level in bronchoalveolar lavage fluid (result in words) (versus OVA-sensitized group): significantly lower than that of the OVA-sensitized group
- lung tissue inflammation score (result in words) (versus OVA-sensitized group): lower than that of the OVA-sensitized group
- number of sneezing (result in words) (versus OVA-sensitized group): could significantly reduce the number of sneezing

Source: US9493453B2, “Piperazinyl pyrimidine derivatives, preparation method and use thereof” (INSTITUTE OF PHARMACOLOGY AND TOXICOLOGY ACADEMY OF …, priority 2012, dated 2016)
